Assay results taken from US20080027098A1, “Derivatives of alpha-phenylthiocarboxylic and alpha-phenyloxy-carboxylic acids useful for the treatment of diseases responding to PPARalpha activation” (SIGMA-TAU INDUSTRIE FARMACEUTICHE RIUNITE S.p.A., priority 2002, published 2008).
For at least one compound, name, drawing or mass did not settle the structure.

Test system: hAPO A I transgenic mice
Assay: Plasma lipid parameters in hAPO A I transgenic mice
Assay type: in vivo
Conditions: gavage, 16 days
Method: ST2518, fenofibrate and rosiglitazone were administered by gavage for 16 days, and plasma (p) parameters were evaluated in post-absorptive state.

Compound | effect on triglyceride levels (in words)
CC(C)OC(=O)C(C)(C)Oc1ccc(C(=O)c2ccc(Cl)cc2)cc1 [Fenofibrate, reference compound] | ineffective
CN(CCOc1ccc(CC2SC(=O)NC2=O)cc1)c1ccccn1 (centres unmarked) [rosiglitazone] | ineffective
